Experimental data reported in US9849489B2, “Passive sampling devices” (priority 2015, dated 2017).

Experiment: thermal desorption of compounds off silicone wristbands compared to a standard injection
Details: 200° C., 50 mL/min nitrogen

Compound	percent of compound desorbed off wristband surface relative to standard injection (100%) [%]
Cc1ccccc1C [o xylene]	73
m and p-Xylene	74
Cc1ccc(C)c(C)c1 [Benzene, 1,2,4-trimethyl-]	94
CCCc1ccccc1 [Benzene, propyl-]	113
C=Cc1ccccc1 [Styrene]	75
Clc1ccc(Cl)c(Cl)c1 [Benzene, 1,2,4-trichloro-]	188
c1ccc2ccccc2c1 [Naphthalene]	104
CC(C)c1ccccc1 [Benzene, (1-methylethyl)-]	78
Clc1cccc(Cl)c1 [Benzene, 1,3-dichloro]	94
CCc1ccccc1 [Ethylbenzene]	74
Cc1ccccc1Cl [Benzene, 1-chloro-2-methyl-]	91
Clc1ccccc1Cl [Benzene, 1,2-dichloro-]	90
CCC(C)c1ccccc1 (stereo not drawn) [Benzene, (1-methylpropyl)-]	88
Brc1ccccc1 [Benzene, bromo-]	91
CCCCc1ccccc1 [Benzene, butyl-]	98
Cc1cccc(C(C)C)c1 [Benzene, 1-methyl-3-(1-methylethyl)-]	92
Cc1ccc(Cl)cc1 [Benzene, 1-chloro-4-methyl-]	90
Clc1ccc(Cl)cc1 [Benzene, 1,4-dichloro-]	94
Clc1ccccc1 [Benzene, chloro-]	70
Clc1cccc(Cl)c1Cl [Benzene, 1,2,3-trichloro-]	88
c1ccccc1 [Benzene]	24
